Assay results: the supplement of paper PMC10849652
The list shows a part of the results.

The chains behind the UniProt entries cited, without tags or fusion partners. Where a name states a change or a piece, a line headed by the entry shows the natural chain unless it says otherwise.
UniProt O43660: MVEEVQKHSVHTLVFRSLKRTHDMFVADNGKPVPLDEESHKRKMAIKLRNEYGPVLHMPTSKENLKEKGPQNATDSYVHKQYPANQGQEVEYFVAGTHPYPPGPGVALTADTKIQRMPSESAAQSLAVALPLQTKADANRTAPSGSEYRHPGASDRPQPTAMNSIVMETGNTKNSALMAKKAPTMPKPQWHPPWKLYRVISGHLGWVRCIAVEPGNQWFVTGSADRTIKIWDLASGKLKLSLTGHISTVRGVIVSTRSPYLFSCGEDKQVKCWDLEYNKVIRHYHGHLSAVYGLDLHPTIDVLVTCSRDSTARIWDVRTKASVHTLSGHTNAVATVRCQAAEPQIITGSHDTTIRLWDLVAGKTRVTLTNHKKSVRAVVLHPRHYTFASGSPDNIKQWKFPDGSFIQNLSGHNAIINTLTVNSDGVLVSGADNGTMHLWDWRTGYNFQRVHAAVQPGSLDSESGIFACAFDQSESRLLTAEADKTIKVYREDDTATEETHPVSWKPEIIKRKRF
UniProt O75817: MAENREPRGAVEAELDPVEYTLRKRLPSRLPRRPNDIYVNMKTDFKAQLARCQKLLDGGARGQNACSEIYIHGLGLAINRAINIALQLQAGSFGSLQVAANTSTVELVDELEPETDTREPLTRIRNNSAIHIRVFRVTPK
UniProt O60664: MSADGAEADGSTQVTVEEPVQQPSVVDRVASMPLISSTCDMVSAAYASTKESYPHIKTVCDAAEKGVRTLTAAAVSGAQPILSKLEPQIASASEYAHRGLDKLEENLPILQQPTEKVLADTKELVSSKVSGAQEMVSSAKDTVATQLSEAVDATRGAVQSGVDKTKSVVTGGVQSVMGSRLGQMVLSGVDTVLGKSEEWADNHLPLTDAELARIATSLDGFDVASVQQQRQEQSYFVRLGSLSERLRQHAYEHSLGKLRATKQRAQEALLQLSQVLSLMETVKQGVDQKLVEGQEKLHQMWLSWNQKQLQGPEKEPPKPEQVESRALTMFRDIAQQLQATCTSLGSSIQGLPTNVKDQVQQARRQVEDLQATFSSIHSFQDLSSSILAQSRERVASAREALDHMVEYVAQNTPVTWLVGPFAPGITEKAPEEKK
UniProt A8CG34, whole entry, looked up: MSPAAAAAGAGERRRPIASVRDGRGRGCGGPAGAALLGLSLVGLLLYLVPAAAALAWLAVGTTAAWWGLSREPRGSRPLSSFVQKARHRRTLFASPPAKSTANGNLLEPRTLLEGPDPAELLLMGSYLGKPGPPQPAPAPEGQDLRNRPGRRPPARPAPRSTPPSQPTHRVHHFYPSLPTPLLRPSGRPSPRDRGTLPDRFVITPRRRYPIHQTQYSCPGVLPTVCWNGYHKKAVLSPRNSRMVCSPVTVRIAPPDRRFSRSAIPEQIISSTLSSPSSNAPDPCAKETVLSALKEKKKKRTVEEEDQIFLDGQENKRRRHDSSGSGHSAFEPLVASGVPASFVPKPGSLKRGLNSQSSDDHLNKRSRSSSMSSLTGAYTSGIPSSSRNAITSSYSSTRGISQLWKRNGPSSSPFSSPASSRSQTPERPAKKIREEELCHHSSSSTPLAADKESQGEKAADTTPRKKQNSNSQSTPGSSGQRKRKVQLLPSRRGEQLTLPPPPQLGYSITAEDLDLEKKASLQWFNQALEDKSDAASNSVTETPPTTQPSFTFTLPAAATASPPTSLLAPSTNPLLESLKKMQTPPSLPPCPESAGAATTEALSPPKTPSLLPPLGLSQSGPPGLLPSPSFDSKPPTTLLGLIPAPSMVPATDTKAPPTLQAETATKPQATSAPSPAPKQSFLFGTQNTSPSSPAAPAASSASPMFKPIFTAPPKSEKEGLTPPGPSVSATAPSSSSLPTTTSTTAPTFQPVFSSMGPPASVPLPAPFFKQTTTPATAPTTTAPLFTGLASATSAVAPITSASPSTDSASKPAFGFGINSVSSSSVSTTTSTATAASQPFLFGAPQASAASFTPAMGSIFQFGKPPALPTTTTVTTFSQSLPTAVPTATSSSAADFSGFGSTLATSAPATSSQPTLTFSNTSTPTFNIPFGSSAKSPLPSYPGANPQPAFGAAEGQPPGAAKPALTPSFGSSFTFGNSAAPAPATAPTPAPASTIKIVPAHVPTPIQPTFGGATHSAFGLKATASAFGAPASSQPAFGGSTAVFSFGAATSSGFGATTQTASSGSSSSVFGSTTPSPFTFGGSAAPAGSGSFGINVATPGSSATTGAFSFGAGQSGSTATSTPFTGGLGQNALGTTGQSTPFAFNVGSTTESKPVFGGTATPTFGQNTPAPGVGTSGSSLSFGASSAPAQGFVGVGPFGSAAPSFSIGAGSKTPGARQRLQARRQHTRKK
UniProt Q92871: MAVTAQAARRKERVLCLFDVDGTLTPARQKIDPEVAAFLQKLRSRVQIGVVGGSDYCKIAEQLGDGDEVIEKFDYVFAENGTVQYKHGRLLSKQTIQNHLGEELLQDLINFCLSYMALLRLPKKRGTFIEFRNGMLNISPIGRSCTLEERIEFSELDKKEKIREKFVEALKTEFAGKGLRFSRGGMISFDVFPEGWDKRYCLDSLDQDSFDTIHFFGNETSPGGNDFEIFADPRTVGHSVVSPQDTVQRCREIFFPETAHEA
UniProt P05423: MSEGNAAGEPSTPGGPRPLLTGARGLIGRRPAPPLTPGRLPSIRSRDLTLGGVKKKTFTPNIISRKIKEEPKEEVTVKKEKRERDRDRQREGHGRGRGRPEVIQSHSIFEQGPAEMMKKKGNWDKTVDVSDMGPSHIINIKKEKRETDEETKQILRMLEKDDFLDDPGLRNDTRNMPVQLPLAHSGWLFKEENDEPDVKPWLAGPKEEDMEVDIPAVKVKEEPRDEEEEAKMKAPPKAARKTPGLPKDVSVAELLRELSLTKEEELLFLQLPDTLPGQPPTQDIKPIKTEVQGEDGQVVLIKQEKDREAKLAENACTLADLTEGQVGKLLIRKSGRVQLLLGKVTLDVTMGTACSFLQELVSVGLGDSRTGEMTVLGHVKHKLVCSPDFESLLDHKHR
UniProt Q8IY17: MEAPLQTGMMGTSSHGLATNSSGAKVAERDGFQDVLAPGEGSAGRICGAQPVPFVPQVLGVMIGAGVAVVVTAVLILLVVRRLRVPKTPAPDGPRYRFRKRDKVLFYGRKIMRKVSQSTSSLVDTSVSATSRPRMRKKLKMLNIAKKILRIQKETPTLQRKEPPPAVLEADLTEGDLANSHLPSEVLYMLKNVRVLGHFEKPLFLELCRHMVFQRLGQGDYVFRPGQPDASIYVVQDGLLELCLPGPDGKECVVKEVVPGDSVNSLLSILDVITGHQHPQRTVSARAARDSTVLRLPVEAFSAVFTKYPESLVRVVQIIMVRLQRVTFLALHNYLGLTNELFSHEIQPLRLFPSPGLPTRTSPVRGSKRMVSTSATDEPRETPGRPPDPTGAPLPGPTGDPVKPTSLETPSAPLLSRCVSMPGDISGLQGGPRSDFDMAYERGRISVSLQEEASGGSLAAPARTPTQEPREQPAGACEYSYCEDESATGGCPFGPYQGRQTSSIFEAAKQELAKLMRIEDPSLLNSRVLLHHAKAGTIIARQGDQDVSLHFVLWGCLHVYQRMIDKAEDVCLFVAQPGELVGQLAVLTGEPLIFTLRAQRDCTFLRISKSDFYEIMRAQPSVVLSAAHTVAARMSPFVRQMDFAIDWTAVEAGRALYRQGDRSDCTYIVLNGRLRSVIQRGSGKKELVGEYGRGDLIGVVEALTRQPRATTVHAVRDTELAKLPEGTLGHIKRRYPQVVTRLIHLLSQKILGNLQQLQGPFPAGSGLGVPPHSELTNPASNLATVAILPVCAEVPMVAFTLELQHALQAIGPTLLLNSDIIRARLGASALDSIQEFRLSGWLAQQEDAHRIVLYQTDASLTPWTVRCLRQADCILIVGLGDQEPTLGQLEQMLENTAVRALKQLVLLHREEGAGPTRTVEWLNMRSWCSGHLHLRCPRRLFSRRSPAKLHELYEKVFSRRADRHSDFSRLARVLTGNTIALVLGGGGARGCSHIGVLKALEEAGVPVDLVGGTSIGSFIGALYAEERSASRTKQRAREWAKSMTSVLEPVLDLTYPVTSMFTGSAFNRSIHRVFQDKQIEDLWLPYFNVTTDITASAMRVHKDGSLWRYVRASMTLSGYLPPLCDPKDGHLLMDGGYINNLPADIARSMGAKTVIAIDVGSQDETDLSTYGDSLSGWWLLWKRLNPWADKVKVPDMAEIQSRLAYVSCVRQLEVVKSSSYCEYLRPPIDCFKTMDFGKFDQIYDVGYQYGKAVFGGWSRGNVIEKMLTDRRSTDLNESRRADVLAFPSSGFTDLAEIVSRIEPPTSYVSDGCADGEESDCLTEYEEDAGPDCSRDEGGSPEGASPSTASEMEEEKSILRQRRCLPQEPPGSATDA
UniProt O15305: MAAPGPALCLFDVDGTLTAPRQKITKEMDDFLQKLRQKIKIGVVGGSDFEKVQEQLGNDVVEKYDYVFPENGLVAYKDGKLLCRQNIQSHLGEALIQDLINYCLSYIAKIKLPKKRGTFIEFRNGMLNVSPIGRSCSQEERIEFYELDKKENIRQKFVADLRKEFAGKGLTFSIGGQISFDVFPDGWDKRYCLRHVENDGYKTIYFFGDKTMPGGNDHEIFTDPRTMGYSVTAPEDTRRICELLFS

What was measured:
Assay in all cases: log2 fold change, soluble protein after heating vs DMSO (PISA); higher = thermal stabilisation; K562 cells, 10 uM, 30 min; active = over 0.2 and 3.5 SD of the protein, either way, in both replicates (recomputed)
[1] = compound: C1=CC=C(C=C1)[C@H](COC2=CC3=C(C=C2)NC(=O)N3)NC(=O)C4=CC=CN(C4=O)CC5=CC(=C(C=C5)F)F
Procedure, shortened: (§1)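 Values are thermal stability changes relative to control samples and are taken from duplicates. They are stated as log2 fold changes. Before quantification by TMTpro 16plex LC-MS/MS with equalised channel sums, K562 cells at 2×10^6 cells/mL were treated with 10 μM compound for 30 min, heated in aliquots for 3 min across 48°C-58°C, pooled, extracted in PBS with 0.5% NP-40 at 4°C, and centrifuged at 21,000xg for 90 min to give the soluble supernatant.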

[2] = compound: CC1=C(SC2=C1C(=N[C@H](C3=NN=C(N32)C)CC(=O)N)C4=CC=C(C=C4)Cl)C
Procedure, shortened: as §1

[3] = compound: CC1=C2C(=CC=C1)N=C(N(C2=O)C3=CC=CC=C3C)CN4C=NC5=C(N=CN=C54)N
Procedure, shortened: as §1

[4] = compound: Cc1sc2c(c1C)C(c1ccc(Cl)cc1)=N[C@@H](CC(=O)OC(C)(C)C)c1nnc(C)n1-2
Procedure, shortened: as §1

[5] = compound: c1ccc([C@@H]2C[C@H]2NC2CCNCC2)cc1
Procedure, shortened: as §1

Measured: log2 fold change

PLRG1 (UniProt O43660)
inactive: [1] -0.048 | [2] -0.066 | [3] -0.037 | [4] 0.017 | [5] 0.086

POP7 (UniProt O75817)
inactive: [1] 0.027 | [2] -0.159 | [3] 0.048 | [4] 0.059 | [5] 0.096

PLIN3 isoform 2 (UniProt O60664)
inactive: [1] 0.132

POLR2E (UniProt P19388)
inactive: [1] -0.013 | [2] 0.094 | [3] -0.023 | [4] 0.054 | [5] -0.06

Looked up one by one from above (2):
POLR2E (UniProt P19388)
inactive: [1] -0.013 | [2] 0.094 | [3] -0.023 | [4] 0.054 | [5] -0.06

PLRG1 (UniProt O43660)
inactive: [1] -0.048 | [2] -0.066 | [3] -0.037 | [4] 0.017 | [5] 0.086

(cont.)

POM121C (UniProt A8CG34)
inactive: [1] 0.198

PMM1 (UniProt Q92871)
inactive: [1] -0.031 | [2] -0.001 | [3] 0.091 | [4] 0.004 | [5] -0.006

POLR3D (UniProt P05423)
inactive: [1] 0.008 | [2] -0.072 | [3] -0.013 | [4] 0.056 | [5] 0.096

PNPLA6 (UniProt Q8IY17)
inactive: [1] -0.003 | [2] -0.011 | [3] 0.054 | [4] 0.023 | [5] -0.04

PMM2 (UniProt O15305)
inactive: [1] 0.003 | [2] 0.046 | [3] -0.027 | [4] 0.06 | [5] 0.009

POLR2I (UniProt P36954)
inactive: [1] 0.063 | [2] 0.104 | [3] -0.163 | [4] 0.194 | [5] -0.035
